Results as given in publication PMC10675959.

Chains of the proteins cited; added tags and fusions are not shown.
UniProt P17677: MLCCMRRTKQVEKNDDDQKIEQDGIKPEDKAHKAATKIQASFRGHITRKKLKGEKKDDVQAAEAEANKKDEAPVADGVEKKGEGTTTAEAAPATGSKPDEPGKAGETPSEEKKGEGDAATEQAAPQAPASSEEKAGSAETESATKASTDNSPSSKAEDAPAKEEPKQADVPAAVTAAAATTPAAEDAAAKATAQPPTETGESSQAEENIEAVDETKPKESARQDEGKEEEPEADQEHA
UniProt Q14258: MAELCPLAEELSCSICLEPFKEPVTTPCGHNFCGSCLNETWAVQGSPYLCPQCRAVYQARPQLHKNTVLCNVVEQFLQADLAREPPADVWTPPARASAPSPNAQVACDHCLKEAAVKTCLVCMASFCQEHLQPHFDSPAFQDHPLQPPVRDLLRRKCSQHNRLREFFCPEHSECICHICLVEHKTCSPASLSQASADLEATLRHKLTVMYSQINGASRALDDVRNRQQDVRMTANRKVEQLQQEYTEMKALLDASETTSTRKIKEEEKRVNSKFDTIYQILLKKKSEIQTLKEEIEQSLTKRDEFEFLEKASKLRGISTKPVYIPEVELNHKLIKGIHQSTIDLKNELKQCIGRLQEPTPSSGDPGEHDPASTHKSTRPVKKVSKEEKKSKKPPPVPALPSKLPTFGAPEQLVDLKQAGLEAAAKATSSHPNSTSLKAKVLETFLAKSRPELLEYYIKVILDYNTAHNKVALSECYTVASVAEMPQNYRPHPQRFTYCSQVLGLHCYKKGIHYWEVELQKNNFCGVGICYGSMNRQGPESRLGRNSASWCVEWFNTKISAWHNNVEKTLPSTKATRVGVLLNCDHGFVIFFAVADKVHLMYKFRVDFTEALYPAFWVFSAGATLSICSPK

Biological target: growth-associated protein 43 (human (endogenous in umbilical cord MSCs)) (UniProt P17677)
Assay: affinity purification with mass spectrometry; GAP43 immunoprecipitate from MSC lysate analysed by LC-MS/MS; the discussion says MSCs transfected with HIF-1α siRNA

binding: binds
Substance: tripartite motif-containing protein 25 (from UniProt Q14258 1-630) (enzyme)

These are yes or no findings as the source states them, for the method shown. In cells and extracts the contact can be indirect. These calls come from enrichment with a bait or labelling near it, and not all partners need be listed.
